Laboratory results: patent publication EP3026118A1, “Enzymatic process for producing 3-butenal and 3-buten-1-ol” (LANXESS Deutschland GmbH, priority 2014, dated 2016)
For at least one compound, name, drawing or mass did not settle the structure.

Test: GC activity test of Acetaldehyd-Dehydrogenasen with Vinylacetyl-CoA/Crotonyl-CoA mixture
Type: biochemical
Settings: summary of reductions of the Vinylacetyl-CoA / Crotonyl-CoA-Gemisch (Tabelle 7); symbols not defined

Q: For [BH4-].[Na+] [NaBH4], which “Produkte Crotylethanol” value is on record?
A: Its value is “+”.

Q: And the “Produkte Vinylethanol” value?
A: The value was “+”.
